Measurements from US11066393B2, “Indolin-2-one derivatives” (Hoffmann-La Roche Inc., priority 2015, dated 2021).
Some entries repeat one wording, which the source may state once for all of them.

System: mice
Experiment: SmartCube behavioral signature similarity analysis
Assay type: in vivo, mouse
Conditions: for Discrimination rate vs Clozapine (1.0 mg/kg) / Discrimination rate vs Olanzapine (0.25 mg/kg) / Discrimination rate vs Risperidone (0.06 mg/kg): SmartCube, rate of 0.70 or lower = similar; for SmartCube behavioral signature, similarity to drug class (in words): i.p.
Text: In addition to the reversal of L-687,414 induced hyperlocomotion experiment as described above, some compounds of the present invention have been tested in SmartCube®, an automated system in which the behaviors of compound-treated mice in response to multiple challenges are captured by digital video and analyzed with computer algorithms (Roberds et al., Frontiers in Neuroscience, 2011, Vol. 5, Art. 103, 1-4; Vadim Alexandrov, Dani Brunner, Taleen Hanania, Emer Leahy Eur. J. Pharmacol. 2015, 750, 82-99). In this way, the neuro-pharmacological effects of a test compound can be predicted by similarity to major classes of compounds, such as antipsychotics, anxiolytics and antidepressants.
SmartCube® was used to compare the behavioral signature of a test compound to a database of behavioral signatures obtained from a large set of clinically approved reference drugs, grouped per indications. In this way, the neuro-pharmacological effects of a test compound can be predicted by similarity to major classes of compounds, such as antipsychotics, anxiolytics and antidepressants. This approach is ideally suited to screen collections of existing drugs or drug candidates with previously unknown neuropharmacology, which could expedite the development of new and unexpected treatments for psychiatric disorders.
Some compounds of the present invention were injected i.p. at different doses 15 minutes before the test. At least 8 mice were used in each treatment group. Digital videos of the subjects were processed with computer vision algorithms to extract over 2000 dependent measures including frequency and duration of many different behavioral states. The results of the classifications are presented as bar charts for each compound and dose (mg/kg), the Y-axis indicates the relative probability that the test compound will show efficacy in the specific CNS indication.
Compounds of the present invention show similar signatures to those of atypical antipsychotics. An independent analysis was performed on the unclassified data to determine the similarity of the example compounds to active doses of known atypical antipsychotics. For this analysis, we use discrimination rate as the measure of separability between the two drugs, i.e. one drug's “distinguishability” from another. A rate equal to 50% (or 0.5) corresponds to zero distinguishability. […] In most cases, the example compounds show a similarity to risperidone, clozapine and olanzapine with a discrimination rate of 0.70.

Structure (SMILES)	Discrimination rate vs Clozapine (1.0 mg/kg) (test compound 5 mg/kg i.p.)	Discrimination rate vs Olanzapine (0.25 mg/kg) (test compound 5 mg/kg i.p.)	Discrimination rate vs Risperidone (0.06 mg/kg) (test compound 5 mg/kg i.p.)	SmartCube behavioral signature, similarity to drug class (in words)	Discrimination rate vs Clozapine (1.0 mg/kg) (test compound 3 mg/kg i.p.)	Discrimination rate vs Olanzapine (0.25 mg/kg) (test compound 3 mg/kg i.p.)	Discrimination rate vs Risperidone (0.06 mg/kg) (test compound 3 mg/kg i.p.)
Cc1ncc(-c2ccc3c(c2)N(c2ccc(C(=O)N(C)C)cn2)C(=O)C3(C)C)cn1 [Example 29, 6-(3,3-Dimethyl-6-(2-methylpyrimidin-5-yl)-2-oxoindolin-1-yl)-N,N-dimethylnicotinamide]	0.60	0.67	0.63	similarity to atypical antipsychotics			
CNC(=O)c1ccnc(N2C(=O)C(C)(C)c3ccc(-c4cnc(C)nc4)cc32)n1 [Example 16, 2-(3,3-Dimethyl-6-(2-methylpyrimidin-5-yl)-2-oxoindolin-1-yl)-N-methylpyrimidine-4-carboxamide]				similarity to atypical antipsychotics	0.56	0.54	0.52
COCCNC(=O)c1cncc(N2C(=O)C(C)(C)c3ccc(-c4cnc(C)nc4)cc32)n1 [Example 7, 6-(3,3-Dimethyl-6-(2-methylpyrimidin-5-yl)-2-oxoindolin-1-yl)-N-(2-methoxyethyl)pyrazine-2-carboxamide]				similarity to atypical antipsychotics	0.57	0.61	0.59
CNC(=O)c1cncc(N2C(=O)C(C)(C)c3ccc(-c4cnc(C)nc4)cc32)n1 [Example 2, 6-(3,3-Dimethyl-6-(2-methylpyrimidin-5-yl)-2-oxoindolin-1-yl)-N-methylpyrazine-2-carboxamide]				similarity to atypical antipsychotics	0.54	0.51	0.63
Cc1ncc(-c2ccc3c(c2)N(c2cnc(C(=O)N(C)C)cn2)C(=O)C3(C)C)cn1 [Example 11, 5-[3,3-Dimethyl-6-(2-methylpyrimidin-5-yl)-2-oxoindol-1-yl]-dimethylpyrazine-2-carboxamide]				similarity to atypical antipsychotics	0.57	0.57	0.64
Cc1ncc(-c2ccc3c(c2)N(c2cccc(C(=O)NC4CC4)n2)C(=O)C3(C)C)cn1 [Example 24, N-Cyclopropyl-6-(3,3-dimethyl-6-(2-methylpyrimidin-5-yl)-2-oxoindolin-1-yl)picolinamide]				similarity to atypical antipsychotics	0.61	0.69	0.65
